Assay [1] concerns the target T1, Bcr-Abl DH domain (residues 487-702).
T1 sequence: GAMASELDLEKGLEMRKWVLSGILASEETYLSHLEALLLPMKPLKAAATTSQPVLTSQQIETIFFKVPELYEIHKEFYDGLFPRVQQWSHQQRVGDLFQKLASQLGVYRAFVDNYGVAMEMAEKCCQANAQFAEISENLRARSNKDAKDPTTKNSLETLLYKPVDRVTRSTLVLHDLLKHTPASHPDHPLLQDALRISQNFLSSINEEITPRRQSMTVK
The assay can be described thus: crystal structure; complex of domain and monobody, sitting drop at 291 K; 1.65 Å; both purified.

The target is the same in assay [2]. In words: NMR titration; [15N,1H]-TROSY of 15N-labelled DH domain alone or in complex with unlabelled monobody; chemical shift perturbations; both purified.
For assay [3], the target named is T2, Bcr-Abl PH domain with internal deletion (PHΔ770-829) (UniProt P11274).
T2 sequence: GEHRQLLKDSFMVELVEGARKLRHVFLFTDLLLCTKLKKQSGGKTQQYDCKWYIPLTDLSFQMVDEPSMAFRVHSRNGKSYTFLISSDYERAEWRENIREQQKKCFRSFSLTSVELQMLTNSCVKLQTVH
The assay can be described thus: SEC; PH and monobody mixed 1:2 (PH:monobody) before injection; Superdex 75 16/600 for the full-length PH domain, Superdex 75 10/300 for PHΔ770-829; both purified. A general note: SEC sorts molecules by how far they enter the pores of the column.

In assay [4] the target is T3, Bcr-Abl PH domain (residues 704-893) (UniProt P11274).
T3 sequence: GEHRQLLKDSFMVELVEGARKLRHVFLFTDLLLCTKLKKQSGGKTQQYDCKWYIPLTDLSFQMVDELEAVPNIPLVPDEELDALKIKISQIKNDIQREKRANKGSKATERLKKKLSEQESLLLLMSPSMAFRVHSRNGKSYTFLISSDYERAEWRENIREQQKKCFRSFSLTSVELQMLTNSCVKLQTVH
The assay is described as above.

Assay [5] concerns the target Bcr-Abl DH-PH tandem domain (residues 487-893) (UniProt P11274). In words: SEC-MALS; analysis of sample homogeneity and oligomeric state of the purified constructs; 0.4 mL/min; both purified.

Results are given in words; binding and its absence hold for the method and conditions named. Some binding calls cover weakened binding; strength is not graded here.

B1: monobody Mb(Bcr-DH_4), purified (designed binder)
chain: VSSVPTKLEVVAATPTSLLISWDAPAVTVDLYVITYGETGGNSPVQEFEVPGSKSTATISGLKPGVDYTITVYAGSYAYEYYWGPSPISINYRT
As to B1, the binding entry in assay [1] and in assay [2] was “binds” throughout.

B2: monobody Mb(Bcr-PH_2), purified (designed binder)
chain: VSSVPTKLEVVAATPTSLLISWDAPAVTVVFYVITYGETGGNSPVQEFTVPGSKSTATISGLKPGVDYTITVYAEYYGYTSSPISINYRT
On to B2, for which the binding entry in assay [3] and in assay [4] was “binds” throughout.

B3: monobody Mb(Bcr-PH_3), purified (designed binder)
chain: VSSVPTKLEVVAATPTSLLISWDAPAVTVVFYVITYGETGGNSPVQEFTVPGSKSTATISGLKPGVDYTITVYAEYYGYSGWQSPISINYRT
For the molecule B3, the binding result in assay [3] and in assay [4] was “binds” in each case.

B4: Bcr-Abl DH-PH tandem domain (residues 487-893) (domain or fragment, UniProt P11274 487-893)
chain: ASELDLEKGLEMRKWVLSGILASEETYLSHLEALLLPMKPLKAAATTSQPVLTSQQIETIFFKVPELYEIHKEFYDGLFPRVQQWSHQQRVGDLFQKLASQLGVYRAFVDNYGVAMEMAEKCCQANAQFAEISENLRARSNKDAKDPTTKNSLETLLYKPVDRVTRSTLVLHDLLKHTPASHPDHPLLQDALRISQNFLSSINEEITPRRQSMTVKKGEHRQLLKDSFMVELVEGARKLRHVFLFTDLLLCTKLKKQSGGKTQQYDCKWYIPLTDLSFQMVDELEAVPNIPLVPDEELDALKIKISQIKNDIQREKRANKGSKATERLKKKLSEQESLLLLMSPSMAFRVHSRNGKSYTFLISSDYERAEWRENIREQQKKCFRSFSLTSVELQMLTNSCVKLQTVH
B4: the binding result in assay [5] is “no binding”.
